The data set in a line: Correlation of plasma drug levels with driving performance, cognitive and self-report measures. The data set is classed as in vivo, human. As to conditions: correlational analyses.

As for `Cc1ccc(C(=O)C(C)CN2CCCCC2)cc1` (centres unmarked) [Tolperisone, tolperisone], the “relationship between performance on the Symbol Digit Coding Test and plasma concentration” value is on record as “higher concentrations were associated with better performance”; the “relationship between plasma concentrations and measures of driving performance, cognitive functioning, or self-report measures” value is reported as “no relationship”.

The record behind these values is patent publication US20200390754A1, “METHODS OF ADMINISTERING TOLPERISONE” (Neurana Pharmaceuticals, Inc., priority 2017, published 2020).
